Measurements reported in PubChem BioAssay AID1259425 (University of Nebraska Medical Center, 2018).
The deposit covers about 14,000 reagents; below is a random part of them. Further read-outs or replicates are left out here. The record does not give: the time to read-out.

- Aim: 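Compare each knockdown with KSR1 silencing using changes in marker transcripts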 (primary screen)
- System: HCT116 human colon cancer cells
- Knock-down reagent: siRNA pool against human genes, 50 nM siRNA
- Measurement: 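mRNA of six signature genes measured together by branched-DNA assay after 50 nM siRNA pool, blank removed, divided by geometric mean of two housekeeping genes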
- Direction: BNIP3L mRNA: higher = more BNIP3L transcript after knockdown

PDE7A (phosphodiesterase 7A)
- BNIP3L mRNA, set 1: 0.0581

MIER2 (MIER family member 2)
- BNIP3L mRNA, set 1: 0.124

GRIA1 (glutamate ionotropic receptor AMPA type subunit 1)
- BNIP3L mRNA, set 1: 0.0606

MYO1D (myosin ID)
- BNIP3L mRNA, set 1: 0.17

IGFBP7 (insulin like growth factor binding protein 7)
- BNIP3L mRNA, set 1: 0.148

DUSP18 (dual specificity phosphatase 18)
- BNIP3L mRNA, set 1: 0.0969

AQP6 (aquaporin 6)
- BNIP3L mRNA, set 1: 0.114

KDM5C (lysine demethylase 5C)
- BNIP3L mRNA, set 1: 0.158

PPAN (peter pan homolog)
- BNIP3L mRNA, set 1: 0.131

Looked up above.
Under “BNIP3L mRNA, set 1”, MYO1D (myosin ID) has 0.17
Under “BNIP3L mRNA, set 1”, KDM5C (lysine demethylase 5C) is entered as 0.158

Additional reagents follow:
XPOT (exportin for tRNA)
- BNIP3L mRNA, set 1: 0.0405

ZNF507 (zinc finger protein 507)
- BNIP3L mRNA, set 1: 0.0699

ZNF157 (zinc finger protein 157)
- BNIP3L mRNA, set 1: 0.175

ERAP2 (endoplasmic reticulum aminopeptidase 2)
- BNIP3L mRNA, set 1: 0.0171

LY6G6E (lymphocyte antigen 6 family member G6E (pseudogene))
- BNIP3L mRNA, set 1: 0.108

CA1 (carbonic anhydrase 1)
- BNIP3L mRNA, set 1: 0.118

HMHB1 (histocompatibility minor HB-1)
- BNIP3L mRNA, set 1: 0.207

ANKRD7 (ankyrin repeat domain 7)
- BNIP3L mRNA, set 1: 0.0636

DIS3 (DIS3 exosome endoribonuclease and 3'-5' exoribonuclease)
- BNIP3L mRNA, set 1: 0.0782

HPX (hemopexin)
- BNIP3L mRNA, set 1: 0.0427
